Laboratory results published in patent US20250255994A1, “DIMERIC IMMUNOCONJUGATES FOR USE IN TREATING CANCERS AND METHODS OF USE” (Medicovestor, Inc., priority 2023, published 2025).
Results are given in words; binding and its absence hold for the method and conditions named. Some binding calls cover weakened binding; strength is not graded here. For some assays here: Sequences can lack the tags named with a protein.

Assays:
[1] = target: T1, recombinant Sp17 protein (human) (UniProt Q15506); assay: western blot of Sp17 protein on an SDS-PAGE gel, detected with chAB2
T1 sequence (looked up): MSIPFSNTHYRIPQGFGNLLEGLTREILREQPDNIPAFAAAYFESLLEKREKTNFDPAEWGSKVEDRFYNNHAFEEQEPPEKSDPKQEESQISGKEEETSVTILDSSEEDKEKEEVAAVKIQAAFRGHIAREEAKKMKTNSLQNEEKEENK

[2] = target: T2, recombinant 6His-Sp17 protein (human, UniProt Q15506 1-151); assay: surface plasmon resonance (Biacore T200), 6His-Sp17 at six concentrations against chAB2, fitted cycles
T2 construct: Analyte of the surface plasmon resonance experiment; not shown: 6His tag
T2 sequence (looked up): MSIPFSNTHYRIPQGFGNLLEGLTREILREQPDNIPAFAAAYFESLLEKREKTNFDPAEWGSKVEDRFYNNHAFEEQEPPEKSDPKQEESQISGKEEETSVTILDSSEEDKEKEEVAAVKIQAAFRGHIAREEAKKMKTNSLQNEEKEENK

[3] = target: T1, recombinant Sp17 protein (human); assay: western blot of Sp17 protein
[4] = target: T1, recombinant Sp17 protein (human); assay: western blot of recombinant Sp17 protein
[5] = target: T1, recombinant Sp17 protein (human); assay: western blot of Sp17 protein on an SDS-PAGE gel, detected with SP17-AB2
[6] = target: T1, recombinant Sp17 protein (human); assay: western blot of Sp17 protein (lane 1) and a tumor cell lysate (lane 2)
[7] = target: T1, recombinant Sp17 protein (human); assay: western blot
[8] = target: T1, recombinant Sp17 protein (human); assay: ELISA of phage display Fab clones on Sp17

B1: mouse-human chimeric anti-Sp17 IgG2a/kappa monoclonal antibody chAB2 (antibody, V domains shown)
VH: QVQLQQSGAEVKKPGSSVKVSCKASGGTFSSYAISWVRQAPGQGLEWMGRIIPILGIANYAQKFQGRVTITADKSTSTAYMELSSLRSEDTAVYYCARPSEEVVAAYGAFDIWGQGTTVTVSS
VL: EIVLTQSPLSLPVRPGEPASISCRASQSLLRSDGFNYLDWYLQKPGQSPQLLVYLGSNRASGVPDRFSGSGSGTDFTLKISRVEAEDVGVYYCMQAVQTPYIFGQGTKLEIK
notes: also called chimeric antibody; anti-Sp17 antibody chAB2
Q: Which binding [1] does the source give for B1 here?
A: Its binding is “binds”.

Q: And the binding [2]?
A: Its binding is “binds”.

Q: And the binding [3]?
A: The binding was “binds”.

Q: And the binding [4]?
A: The binding was “binds”.

B2: human anti-Sp17 IgG4/kappa monoclonal antibody SP17-AB2 (antibody, V domains shown)
VH: QVQLQQSGAEVKKPGSSVKVSCKASGGTFSSYAISWVRQAPGQGLEWMGRIIPILGIANYAQKFQGRVTITADKSTSTAYMELSSLRSEDTAVYYCARPSEEVVAAYGAFDIWGQGTTVTVSS
VL: EIVLTQSPLSLPVRPGEPASISCRASQSLLRSDGFNYLDWYLQKPGQSPQLLVYLGSNRASGVPDRFSGSGSGTDFTLKISRVEAEDVGVYYCMQAVQTPYIFGQGTKLEIKR
Q: Which results are given for B2?
A: binding [5]: binds; binding [6]: binds; binding [7]: binds

B3: anti-Sp17 Fab clone identified by bio-panning of the human Fab phage display library (Fab, V domains shown)
VH: QVQLQQSGAEVKKPGSSVKVSCKASGGTFSSYAISWVRQAPGQGLEWMGRIIPILGIANYAQKFQGRVTITADKSTSTAYMELSSLRSEDTAVYYCARPSEEVVAAYGAFDIWGQGTTVTVSS
VL: EIVLTQSPLSLPVRPGEPASISCRASQSLLRSDGFNYLDWYLQKPGQSPQLLVYLGSNRASGVPDRFSGSGSGTDFTLKISRVEAEDVGVYYCMQAVQTPYIFGQGTKLEIK
Q: Which binding [8] does the source give for B3 here?
A: Its binding is “binds”.
